These results are taken from patent publication US20240376195A1.

The chains behind the UniProt entries cited, without tags or fusion partners. Residues count along the entry.
UniProt O14931, residues 19-135: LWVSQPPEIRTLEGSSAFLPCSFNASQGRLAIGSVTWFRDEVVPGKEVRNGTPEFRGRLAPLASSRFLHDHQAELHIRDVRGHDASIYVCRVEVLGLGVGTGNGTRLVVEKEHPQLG

The target of assay [1] is his-tagged human NKp30 (human) (UniProt O14931). The assay can be described thus: SPR, antibody captured on anti-human Fc surface.
Assay [2] concerns the target NKp30 (form in the assay not stated) (UniProt O14931). In words: flow cytometry, y axis NKp30 (MFI); cells not named in the legend or on the sheet. (Flow cytometry measures light scatter and fluorescence of single cells or particles in a stream.)

These are yes or no findings as the source states them, for the method shown. Some results given as binding are weak or reduced against the parent protein; the word gives no strength.

B1: BGA1831 (antibody, human IgG1, kappa, V domains shown)
VH: QVQLVQSGAVVVKPGASVKVSCKASGYTFTSSWMHWARQAPGQGLEWIGEIHPNRDNTNYNEKFKGRATLTVDTSTSTAYMELSSLRSEDTAVYYCARSYYDYGGAYFDSWGQGTLVTVSS
VL: QIVLTQSPSSLSASVGDRVTITCKASQDVSTAVAWYQQKPGKSPKLLIYAASYRHIGVPSRFSGSGSGTDFTFTISSLQPEDFATYYCQQHYSNPFTFGGGTKVEIKR
As to B1, in assay [1], the binding result was “binds”.

B2: BGA1832 (antibody, human IgG1, kappa, V domains shown)
VH: QVQLVQSGAEVKKPGASVKVSCKASGYTFTSSYMHWVRQAPGQGLEWMGEIHPNRDNTNYNEKFKGRVTMTVDTSTSTVYMELSSLRSEDTAVYYCARSYYDYGGAYFDAWGQGTLVTVSS
VL: DIQLTQSPSSLSASVGDRVTITCKASQDVSTAVAWYQQKPGKAPKLLIYAASYRHIGVPSRFSGSGSGTDFTLTISSLQPEDFATYYCQQHYSNPFTFGGGTKVEIKR
Take B2: the binding result in assay [1] is recorded as “binds”.

B3: mu183 (antibody, V domains shown)
VH: QVQLQQPGSVLVRPGASVKLSCKASGYTFTSSWMHWAKQRPGQGLEWIGEIHPNRDNTNYNEKFKGKATLTVDTSSSTAYVDLSSLTSEDSAVYYCARSYYDYGGAYFDSWGQGTTLTVSS
VL: QIVLTQSHKFMSTSVGDRVSITCKASQDVSTAVAWYQQKPGQSPKLLIYAASYRHIGVPDRFTGSGSGTDFTFTISSVQAEDLAVYYCQQHYSNPFTFGSGTKLEIK
As for B3, the binding entry in assay [2] was “binds”.
